Results are given in words; binding and its absence hold for the method and conditions named. For some of these results: In cells and extracts the contact can be indirect. Some entries that bind do so weakly or less than the wild type.
Columns and labels:
[1] = molecular target: recombinant human wild-type lamin A (human) (UniProt P02545); test: co-sedimentation; sucrose density gradient centrifugation; proteins dialysed alone or together from urea into 10 mM Tris-HCl pH 7.5, 1 mM DTT, 300 mM NaCl, 10% sucrose; 10% to 30% sucrose gradient on a 70% cushion, 20 hr at 190,000 x g, 4°C; fractions on Coomassie-stained gels; both purified
[2] = molecular target: lamin A/C (endogenous, mEos3.2-lamin A/C WT mouse dermal fibroblasts) (mouse (endogenous in mouse dermal fibroblasts)) (UniProt P48678); test: co-IP; soluble extract of mEos3.2-lamin A/C WT mouse fibroblasts (20 mM Tris-HCl pH7.5, 150 mM NaCl, 2 mM EGTA, 2 mM MgCl2, 0.5% NP-40, Benzonase); lamin A/C antibodies (N18, E1, pS22 D2B2E) overnight at 4°C, protein A/G dynabeads; blot for LAP2α (1H11); LAP2α and lamin A/C knockout cells as controls
[3] = molecular target: pS22 lamin A/C (lamin A/C phosphorylated at serine 22; endogenous, mouse dermal fibroblasts) (mouse (endogenous in mouse dermal fibroblasts)) (UniProt P48678); test: as above

Chains of the proteins cited; added tags and fusions are not shown. Residues count along the entry.
UniProt P02545, residues 1-646: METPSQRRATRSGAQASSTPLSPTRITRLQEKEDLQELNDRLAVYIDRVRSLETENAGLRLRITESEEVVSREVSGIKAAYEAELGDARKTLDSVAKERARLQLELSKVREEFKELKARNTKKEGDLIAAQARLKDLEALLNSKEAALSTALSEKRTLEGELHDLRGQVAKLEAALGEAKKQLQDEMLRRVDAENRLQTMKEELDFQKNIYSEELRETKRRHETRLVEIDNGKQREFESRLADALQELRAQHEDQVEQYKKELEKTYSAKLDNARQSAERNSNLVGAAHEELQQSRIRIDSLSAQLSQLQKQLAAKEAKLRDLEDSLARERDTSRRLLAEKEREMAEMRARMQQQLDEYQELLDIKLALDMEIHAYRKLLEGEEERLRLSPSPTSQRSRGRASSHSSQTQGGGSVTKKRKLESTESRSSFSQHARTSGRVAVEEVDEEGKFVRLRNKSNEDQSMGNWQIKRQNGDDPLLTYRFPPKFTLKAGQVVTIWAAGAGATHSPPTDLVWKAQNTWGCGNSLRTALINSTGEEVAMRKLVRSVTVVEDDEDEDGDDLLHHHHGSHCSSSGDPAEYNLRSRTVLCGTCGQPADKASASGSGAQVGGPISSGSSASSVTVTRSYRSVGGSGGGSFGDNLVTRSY
UniProt P48678, residues 1-647: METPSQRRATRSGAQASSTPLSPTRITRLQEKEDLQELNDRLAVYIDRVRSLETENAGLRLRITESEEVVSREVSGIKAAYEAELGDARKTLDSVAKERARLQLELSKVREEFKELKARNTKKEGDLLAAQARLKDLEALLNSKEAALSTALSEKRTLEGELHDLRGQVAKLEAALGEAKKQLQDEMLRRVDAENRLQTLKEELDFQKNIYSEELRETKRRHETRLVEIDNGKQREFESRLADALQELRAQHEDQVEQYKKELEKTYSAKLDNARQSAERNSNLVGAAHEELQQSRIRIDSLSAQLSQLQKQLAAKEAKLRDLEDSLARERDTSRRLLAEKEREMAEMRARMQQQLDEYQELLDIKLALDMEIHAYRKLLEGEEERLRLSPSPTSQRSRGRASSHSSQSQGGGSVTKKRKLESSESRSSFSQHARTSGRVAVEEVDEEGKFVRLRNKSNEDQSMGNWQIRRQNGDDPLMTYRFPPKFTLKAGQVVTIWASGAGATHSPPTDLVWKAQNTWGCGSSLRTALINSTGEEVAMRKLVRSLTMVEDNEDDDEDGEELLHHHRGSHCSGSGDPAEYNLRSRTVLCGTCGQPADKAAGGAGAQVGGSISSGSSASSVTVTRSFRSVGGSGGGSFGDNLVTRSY

B1: recombinant full-length human LAP2α (protein, UniProt P42166 1-694)
chain: MPEFLEDPSVLTKDKLKSELVANNVTLPAGEQRKDVYVQLYLQHLTARNRPPLPAGTNSKGPPDFSSDEEREPTPVLGSGAAAAGRSRAAVGRKATKKTDKPRQEDKDDLDVTELTNEDLLDQLVKYGVNPGPIVGTTRKLYEKKLLKLREQGTESRSSTPLPTISSSAENTRQNGSNDSDRYSDNEEGKKKEHKKVKSTRDIVPFSELGTTPSGGGFFQGISFPEISTRPPLGSTELQAAKKVHTSKGDLPREPLVATNLPGRGQLQKLASERNLFISCKSSHDRCLEKSSSSSSQPEHSAMLVSTAASPSLIKETTTGYYKDIVENICGREKSGIQPLCPERSHISDQSPLSSKRKALEESESSQLISPPLAQAIRDYVNSLLVQGGVGSLPGTSNSMPPLDVENIQKRIDQSKFQETEFLSPPRKVPRLSEKSVEERDSGSFVAFQNIPGSELMSSFAKTVVSHSLTTLGLEVAKQSQHDKIDASELSFPFHESILKVIEEEWQQVDRQLPSLACKYPVSSREATQILSVPKVDDEILGFISEATPLGGIQAASTESCNQQLDLALCRAYEAAASALQIATHTAFVAKAMQADISQAAQILSSDPSRTHQALGILSKTYDAASYICEAAFDEVKMAAHTMGNATVGRRYLWLKDCKINLASKNKLASTPFKGGTLFGGEVCKVIKKRGNKH
Q: With B1 as the binder, how does the binding [1] read?
A: Its binding is “binds”.

B2: LAP2α (endogenous, mouse dermal fibroblasts) (natural protein, UniProt Q61033 1-693, looked up)
chain: MPEFLEDPSVLTKDKLKSELVANNVTLPAGEQRKDVYVQLYLQHLTARNRPPLAAGANSKGPPDFSSDEEREPTPVLGSGASVGRGRGAVGRKATKKTDKPRLEDKDDLDVTELSNEELLDQLVRYGVNPGPIVGTTRKLYEKKLLKLREQGTESRSSTPLPTVSSSAENTRQNGSNDSDRYSDNDEGKKKEHKKVKSARDCVPFSELASTPSGAFFQGISFPEISTRPPLGRTELQAAKKVQTTKRDPPRETCTDTALPGKGQTHKLAPGRSLFIPSESSYDRCVEKSSSPSSQREFAARLVSAAASPSLIRETTTTYSKDIVENICRGGKSRAQPLRAEEPGVSDQSVFSSEREVLQESERSQVISPPLAQAIRDYVNSLLVQGGVGSLPGTSDSVPTLDVENICKRLSQSSYQDSESLSPPRKVPRLSEKPARGGDSGSCVAFQNTPGSEHRSSFAKSVVSHSLTTLGVEVSKPPPQHDKIEASEPSFPLHESILKVVEEEWQQIDRQLPSVACRYPVSSIEAARILSVPKVDDEILGFISEATPRAATQASSTESCDKHLDLALCRSYEAAASALQIAAHTAFVAKSLQADISQAAQIINSDPSDAQQALRILNRTYDAASYLCDAAFDEVRMSACAMGSSTMGRRYLWLKDCKISPASKNKLTVAPFKGGTLFGGEVHKVIKKRGNKQ
notes: lamin-associated polypeptide 2 alpha (LAP2α), mouse, endogenous, detected with antibody 1H11; also called lamin-associated polypeptide 2 alpha; source: endogenous, mEos3.2-Lmna WT mouse dermal fibroblasts, soluble cell extract
Q: How did the binding [2] turn out when B2 was run?
A: The binding was “binds”.

Q: What about the binding [3] of the same binder?
A: The binding was “binds”.

B3: truncation mutant LAP2α_(1-414) (domain or fragment, UniProt P42166 1-414)
chain: MPEFLEDPSVLTKDKLKSELVANNVTLPAGEQRKDVYVQLYLQHLTARNRPPLPAGTNSKGPPDFSSDEEREPTPVLGSGAAAAGRSRAAVGRKATKKTDKPRQEDKDDLDVTELTNEDLLDQLVKYGVNPGPIVGTTRKLYEKKLLKLREQGTESRSSTPLPTISSSAENTRQNGSNDSDRYSDNEEGKKKEHKKVKSTRDIVPFSELGTTPSGGGFFQGISFPEISTRPPLGSTELQAAKKVHTSKGDLPREPLVATNLPGRGQLQKLASERNLFISCKSSHDRCLEKSSSSSSQPEHSAMLVSTAASPSLIKETTTGYYKDIVENICGREKSGIQPLCPERSHISDQSPLSSKRKALEESESSQLISPPLAQAIRDYVNSLLVQGGVGSLPGTSNSMPPLDVENIQKRIDQ
Q: For B3, which binding [1] is on record?
A: The binding was “no binding”.

— publication PMC7939549, “LAP2alpha maintains a mobile and low assembly state of A-type lamins in the nuclear interior” (eLife, 2021)
